Results reported in patent publication US20030229137A1, “Methods of inhibiting osteoclast activity” (priority 2001, published 2003).
At least one structure is not confirmed: it was looked up by name or label, or the drawing left a doubt.

Tested on: osteoclast formation from PBMC
Assay: in vitro osteoclast formation assay (RANKL/M-CSF, MTS/TRAP)
Type: cell-based
Conditions: Table 1 experiments
Description: Each of the kavalactones isolated in Example 1 was studied in an in vitro osteoclast formation assay. The protocol used (essentially that described in T. Yoneda et al., Endocrinology, 129(2):683-689 (1991) and H. Zhou et al., J Biol. Chem., 272, 14926 (2001)) is as follows:
(A) Osteoclast Formation Culture
1) Prepare assay wells (n=4) for each dilution of a test compound in a 384-plate. Each well contains 25 μl of 2× conc. of the compound in 10% FBS-media/0.5% DMSO.
2) Suspend PBMC in 10% FBS-media supplemented with 40 ng/ml of RANKL and 20 ng/ml of human M-CSF at 1.5 M cells/ml.
3) Vortex cell suspension and filtrate through mesh filter to remove cell aggregates.
4) Inoculate 25 μl of cell suspension to each well.
5) Centrifuge the assay plate at 1500 rpm (˜700 g) for 1 min.
6) Start osteoclast formation culture in a 5% CO2-incubator.
7) After 48 h of the culture, replenish 10 μl of 10% FBS-media supplemented with 120 ng/ml of RANKL and 60 ng/ml of M-CSF. Continue the culture until multiple osteoclasts are visible in control wells (up to 4˜5 days).
1) Add 6 μl of MTS reagent to each well and further incubate 1˜2 hrs.
2) Measure absorbance at 490 nm.
3) Discard MTS/culture media and fix cells in 60% acetone/0.38 M citrate buffer, pH 5.4 for 30 sec. Rinse cells with MQ once and air-dried. […]
5) Measure absorbance at 405 nm. […]

Structure (SMILES) | suppression of osteoclast formation under the test conditions (in words)
C=CC[C@@H]1/C=C(\C)C[C@H](C)C[C@H](OC)[C@H]2O[C@@](O)(C(=O)C(=O)N3CCCC[C@H]3C(=O)O[C@H](/C(C)=C/[C@@H]3CC[C@@H](O)[C@H](OC)C3)[C@H](C)[C@@H](O)CC1=O)[C@H](C)C[C@@H]2OC [FK506, reference compound] | do not suppress osteoclast formation
Cc1ccc(-c2cc(C(F)(F)F)nn2-c2ccc(S(N)(=O)=O)cc2)cc1 [celecoxib, reference compound] | do not suppress osteoclast formation
